Values from PubChem BioAssay AID720505 (Drosophila RNAi Screening Center, 2013)
Screen: 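Knock-downs that reduce calcium influx once internal stores are emptied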 (primary screen). Cells: Drosophila S2R+ cells. Reagents: long dsRNA against Drosophila genes. Treatment: thapsigargin (2 µM) in calcium-free buffer to empty internal stores, then 2 mM calcium added back. Measured: 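Stores emptied by 2 µM thapsigargin without calcium, then 2 mM calcium re-added; fluo-4 fluorescence followed by FLIPR in 384-well plates, per-well averaged endpoint, raw; two screen passes, some wells retested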. Scale: calcium signal: higher = more calcium entry after store depletion. Hit rule: 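About 1500 genes called as lowering calcium entry, by varying amounts, judged against per-plate control wells with STIM1 as positive and Rho1 as negative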. Calls: active = called as lowering calcium entry; inactive = not called.
The screen tested about 20,000 reagents; this is a random part of those that have a named target and a result. Over the whole deposit, about 2,100 (10%) are marked active. 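Raw plate signals without normalisation; calls rest on control-based scores that were not deposited; replicate 2 separates called from uncalled poorly.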 The numbers tell different reagents against one gene apart. A plus sign joins genes that one reagent is predicted to hit. No sequences are given here. Not stated in the record: the amount of reagent, the time to read-out.

target | reagent no. | calcium signal, replicate 1 | calcium signal, replicate 2 | outcome
CG31975 + ovm | 1 | 140 | 106 | inactive
mei-38 (GeneID 31104) | 1 | 90.4 | 67 | active
CG9812 (GeneID 37709) | 1 | 105 | 160 | inactive
CG11619 (GeneID 40072) | 1 | 62.4 | 106 | active
Zasp67 (GeneID 39148) | 1 | 59 | 103 | active
coro (GeneID 35596) | 1 | 135 | 91.2 | inactive
coro (GeneID 35596) | 2 | 169 | 129 | inactive
DCTN2-p50 (GeneID 44086) | 1 | 163 | 146 | inactive
Pez (GeneID 33882) | 1 | 146 | 73.9 | inactive
CG33169 (GeneID 40504) | 1 | 105 | 116 | inactive
alpha4GT1 (GeneID 33512) | 1 | 104 | 195 | inactive
Pdss2 (GeneID 40323) | 1 | 132 | 90.3 | inactive
CG3149 (GeneID 31489) | 1 | 94.7 | 75.3 | inactive
tomboy40 (GeneID 35553) | 1 | 181 | 87.5 | inactive
VhaAC39-1 (GeneID 31342) | 1 | 118 | 142 | inactive
pelo (GeneID 34286) | 1 | 98.8 | 90.5 | inactive
CG2150 (GeneID 43745) | 1 | 82.7 | 130 | inactive

Laid out differently: results already given.
target,reagent no.,"calcium signal, replicate 1","calcium signal, replicate 2",outcome
DCTN2-p50 (GeneID 44086),1,163,146,inactive
Pez (GeneID 33882),1,146,73.9,inactive
CG33169 (GeneID 40504),1,105,116,inactive
alpha4GT1 (GeneID 33512),1,104,195,inactive
Pdss2 (GeneID 40323),1,132,90.3,inactive
CG3149 (GeneID 31489),1,94.7,75.3,inactive

Next entries follow:
target | reagent no. | calcium signal, replicate 1 | calcium signal, replicate 2 | outcome
MBD-like (GeneID 41151) | 1 | 147 | 125 | inactive
ari-1 (GeneID 32796) | 1 | 102 | 127 | inactive
ari-1 (GeneID 32796) | 2 | 159 | 104 | inactive
CG33777 (GeneID 3772311) | 1 | – | – | active
CG2663 (GeneID 40649) | 1 | 139 | 164 | inactive
CG5986 (GeneID 192506) | 1 | 119 | 262 | inactive
CG6420 (GeneID 43218) | 1 | 98.3 | 158 | inactive
TkR86C (GeneID 41286) | 1 | 130 | 95.3 | inactive
CG43121 (GeneID 12798254) | 1 | 94.5 | 80.1 | inactive
CG10338 (GeneID 35124) | 1 | 92.9 | 103 | inactive
mRpS5 (GeneID 3355089) | 1 | 143 | 113 | inactive
rept (GeneID 40092) | 1 | 66.3 | 132 | active
Coq4 + frc | 1 | 130 | 134 | inactive
Coq4 + frc | 2 | 65.5 | 107 | inactive
Or85c (GeneID 41008) | 1 | 178 | 185 | inactive
CG15431 (GeneID 33646) | 1 | 107 | 123 | inactive
wdp (GeneID 37548) | 1 | 120 | 136 | inactive
